Experimental data taken from PubChem BioAssay AID2685 (National Center for Advancing Translational Sciences (NCATS), 2010).
Some of the results follow. Shown are side measurements of this screen, not its main read-out; they come without a call. The list favours compounds with an active or inconclusive main result. The note in brackets gives the kind of curve behind each potency; many fits are weak.

Experiment: qHTS Assay for Lipid Storage Modulators in Drosophila S3 Cells;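 on cell number change: cells counted by Cell Tracker Red CMTPX staining in the red channel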
Conditions: BODIPY lipid droplet fluorescence, 18-24 h; for cell number change: measured here: cell count max response, cells fed with added oleic acid
Method in brief: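 Drosophila S3 cells loaded with oleic acid (400 uM, as added) and compounds at several concentrations; lipid droplets imaged by 488-nm laser-scanning cytometry, 500–530 nm intensity and object ratio to cell channel. Percent activity normalized to 20 uM Triacsin C.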

[1] = measured here: lipid fluorescence (Fed channel) AC50, cells fed with added oleic acid
[2] = measured here: cell number channel AC50, cells fed with added oleic acid

SMILES	cell number change	AC50 [1]	AC50 [2]
CC1Sc2n(c3ccccc3[n+]2C)N=C1c1ccccc1 (configuration not stated)	-21.8%	18.4 µM [falling, single point]	–
Nc1[nH]c(=O)[nH]c(=O)c1N=Nc1ccc(C(=O)O)cc1	-10%	4.11 µM [rising, single point]	–
Cc1ccnc(NC(=O)CCC(=O)N(CC(=O)NCc2ccc(F)cc2)c2ccc(F)cc2)c1	24.4%	–	–
COC(=O)c1cc(NC(=O)CSc2nnc(CN3CCOCC3)n2C)ccc1Cl	-5.81%	6.51 µM [rising, single point]	–
CC(C)OC(=S)N/C(=N\S(=O)(=O)c1ccccc1)c1ccccc1	–	–	4.61 µM [falling, single point]
C=CCn1cc(/C=C2/NC(=O)NC2=O)c2ccccc21	–	–	0.164 µM [rising, full curve, poor fit]
COC(=O)c1cc(NC(=O)c2c(F)c(F)c(F)c(F)c2F)cc(C(=O)OC)c1	7.77%	–	–
Cc1cccc(C)c1NC(=S)NC(=O)c1ccc(Br)o1	-52.2%	29.1 µM [falling, single point]	0.461 µM [falling, partial curve, poor fit]
Cc1cccc(NS(=O)(=O)c2ccc(-c3cnc(C4CC4)o3)cc2)c1C	-9.14%	6.51 µM [rising, partial curve]	3.26 µM [rising, single point]
O=C(Nc1ccccc1O)N1c2ccccc2Sc2ccccc21	-0.525%	–	–
OC(COCc1ccc2c(c1)OCO2)CN1CCC(Cc2ccccc2)CC1 (configuration not stated)	-136%	–	–
O=C(Nc1cccc(S(=O)(=O)N2CCCCC2)c1)c1cccs1	44.7%	–	6.51 µM [rising, full curve, poor fit]
Cc1ccc(-c2nc(CS(=O)CC(=O)NCCN3CCCCCC3)c(C)o2)cc1 (configuration not stated)	-13.3%	0.146 µM [rising, full curve, poor fit]	–
CC1CCC(N2CCNCC2)CC1 (configuration not stated)	9.05%	6.51 µM [falling, single point]	–
Cc1cccc(N2CC(C(=O)Nc3nnc(SCCC4OCCO4)s3)CC2=O)c1 (configuration not stated)	8.25%	3.98 µM [rising, full curve, poor fit]	–
CN1CCN(C(=O)CN(C)S(=O)(=O)c2cc(Cl)ccc2Cl)CC1	6.58%	–	–
CCc1ccc(-c2cc(C)no2)cc1S(=O)(=O)N1CCC(C)CC1	-11.9%	–	–
CCc1nnc(NC(=O)CSc2nnc(CNc3ccc(OC)cc3)n2CC)s1	16.8%	1.64 µM [rising, partial curve, poor fit]	2.59 µM [rising, partial curve, poor fit]
Nc1c(N(CCC2=CCCCC2)C(=O)c2ccc([N+](=O)[O-])o2)c(=O)[nH]c(=O)n1Cc1ccccc1	-32.5%	29.1 µM [falling, single point]	32.6 µM [falling, single point]
O=C(NC1CCCC1)c1ccc(CSCc2ccccc2F)o1	110%	1.84 µM [rising, partial curve]	2.31 µM [rising, full curve]

Ordered by SMILES length (descending): some entries from above.
SMILES	cell number change	AC50 [1]	AC50 [2]
Cc1ccc(-c2nc(CS(=O)CC(=O)NCCN3CCCCCC3)c(C)o2)cc1 (configuration not stated)	-13.3%	0.146 µM [rising, full curve, poor fit]	–
Cc1cccc(NS(=O)(=O)c2ccc(-c3cnc(C4CC4)o3)cc2)c1C	-9.14%	6.51 µM [rising, partial curve]	3.26 µM [rising, single point]
C=CCn1cc(/C=C2/NC(=O)NC2=O)c2ccccc21	–	–	0.164 µM [rising, full curve, poor fit]

(more compounds)

SMILES	cell number change	AC50 [1]	AC50 [2]
CCCCCCN1C=CC=C/C1=C/C=C(C#N)C#N	-65.4%	20.6 µM [falling, partial curve]	29.1 µM [falling, single point]
Cc1ccccc1NS(=O)(=O)c1cc(C(=O)N2CCCC2)ccc1Cl	–	0.103 µM [falling, full curve, poor fit]	–
Cn1c(SCc2nc3ccccc3n2CCO)nc2ccccc21	-24.2%	13 µM [falling, partial curve, poor fit]	–
Cc1nn(-c2ccccc2)c2sc(C(=O)NNC(=O)COc3cccc4ccccc34)cc12	-23.3%	0.411 µM [falling, single point]	–
Cc1c(NC(=O)COc2ccc3ccc(=O)oc3c2)c(=O)n(-c2ccccc2)n1C	2.81%	–	–
CCOc1ccccc1NC(=O)c1nc(S(=O)(=O)Cc2cccc(C)c2)ncc1Cl	-9.63%	–	2.06 µM [falling, partial curve]
CCN1CCN(c2ccc(S(=O)(=O)N3CCCCC3)cc2NC(=O)COc2ccc(Cl)cc2)CC1	20.9%	–	–
C/C(=N\NC(=S)NCc1ccccc1)c1ccc2ccccc2c1	14.3%	7.31 µM [rising, partial curve]	–
Cn1c(SCC(=O)N2CCCCC2)nc2cccnc21	-10.7%	8.2 µM [rising, partial curve]	–
CCOC(=O)C1(Cc2ccccc2Cl)CCN(Cc2csc(C(C)=O)c2)CC1	14.9%	3.26 µM [rising, partial curve]	–
CC(C)CNS(=O)(=O)c1ccc(CCC(=O)N2CCOCC2)cc1	15.3%	29.1 µM [falling, single point]	–
COc1ccc(CC(=O)NCC2CCCN(Cc3cccc(SC)c3)C2)cc1 (configuration not stated)	12.5%	20.6 µM [rising, partial curve]	–
CN(C(=O)COc1cccc(Br)c1)C1CCS(=O)(=O)C1 (configuration not stated)	-3.49%	–	–
Cc1ccc(NC(=O)CSc2nc3ccccc3c(=O)n2CCCC(=O)N2CCCC2)cc1	14.1%	1.84 µM [rising, partial curve, poor fit]	–
CN(C)CCNC(=O)/C(=C/c1ccc(-c2ccc(Cl)cc2)o1)NC(=O)c1ccccc1	-23.3%	0.00517 µM [falling, full curve, poor fit]	–
CNS(=O)(=O)c1ccc(NC(=O)C2c3ccccc3Oc3ccccc32)cc1	0.884%	–	–
CCOc1ccccc1N1CCN(C(=O)Nc2ccc(F)c(Cl)c2)CC1	23.2%	2.31 µM [falling, partial curve]	–
CCCN(CC(=O)Nc1ccccc1C)C(=O)c1nn(CC)c(=O)c2ccccc12	32.6%	20.6 µM [rising, partial curve]	18.4 µM [rising, single point]
Cc1ccc(NC(=O)C2C3C=CC4(O3)C2C(=O)N(CCCN2CCCC(C)C2)C4C(=O)NC2CCCCC2)cc1 (configuration not stated)	12.6%	29.1 µM [falling, single point]	–
Cc1cc(NC(=O)OC2CCCCC2)ccc1[N+](=O)[O-]	2.52%	0.206 µM [rising, single point]	–

SMILES	cell number change	AC50 [1]	AC50 [2]
O=C(O)CCCNC(=O)CCCn1nnc2ccccc2c1=O	-9.29%	29.1 µM [falling, single point]	–
N#C/C(=N\O)c1nc2ccccc2[nH]1	20.5%	18.4 µM [rising, single point]	–
O=C(CCl)N1N=C(c2ccco2)CC1c1cccs1 (configuration not stated)	–	20.6 µM [falling, single point]	–
COc1ccc(CSc2n[nH]c(C)n2)cc1Br	-7.13%	0.164 µM [falling, full curve, poor fit]	2.06 µM [falling, partial curve, poor fit]
Cc1cc(-c2nc(-c3ccc(C(C)(C)C)cc3)no2)no1	7.74%	2.06 µM [rising, single point]	–
CCOC(=O)c1c(C)n(C)c2c(C)cc(O)c(OC(=O)CC)c12	7.86%	18.4 µM [rising, single point]	–
CCN1CCN(c2c(/C=C3\SC(=S)N(Cc4ccco4)C3=O)c(C)c(C#N)c(=O)n2C)CC1	-30.3%	2.31 µM [falling, partial curve]	32.6 µM [falling, single point]
Cc1cc(NC(=O)c2cncc(Br)c2)ccc1NC(=O)c1cc2ccccc2o1	-64.4%	4.11 µM [falling, full curve]	5.17 µM [falling, partial curve]
COc1ccc(C(CNC(=O)CCNC(=O)c2ccccc2Cl)N2CCCC2)cc1 (configuration not stated)	-2.76%	0.651 µM [rising, full curve]	–
COc1ccc(OC)c2c(C)cc(N3CCN(C(=O)c4ccc(F)cc4)CC3)nc12	5.37%	6.51 µM [falling, full curve, poor fit]	–
CN(Cc1ccccc1)C(=O)COc1ccc(C(C)(C)C)cc1	-36.5%	6.51 µM [rising, single point]	20.6 µM [falling, single point]
O=c1[nH]c(C2CCN(S(=O)(=O)c3ccccc3)CC2)nc2c1nnn2Cc1c(F)cccc1Cl	7.69%	–	–
COc1ccc(-c2cc(=O)oc3cc(OCC(=O)NCc4ccccn4)ccc23)cc1	7.44%	29.1 µM [falling, single point]	0.291 µM [rising, full curve, poor fit]
O=C(CCc1ccccc1)c1ccc2c(c1)OCCCO2	41.5%	–	23.1 µM [rising, partial curve, poor fit]
COc1ccc(CC(=O)NNc2ncnc3c2cnn3C)cc1OC	-16.9%	20.6 µM [rising, single point]	0.103 µM [falling, full curve, poor fit]
CCCCN(CCCC)CC(O)COc1ccccc1Br (configuration not stated)	5.57%	0.82 µM [falling, full curve, poor fit]	–
Clc1nc2ccccc2cc1/C=N/Nc1nc2ccccc2[nH]1	-47.4%	0.103 µM [falling, full curve, poor fit]	0.116 µM [falling, full curve]
COc1ccc(N2CCN(S(=O)(=O)c3ccc4c(c3)NC(=O)C(C)C(=O)N4)CC2)cc1 (configuration not stated)	2.88%	20.6 µM [falling, single point]	–
N#Cc1ccc(S(=O)(=O)N2CCN(Cc3cccs3)CC2)cc1	-5.22%	–	4.11 µM [falling, single point]
